Some of the results follow. Repeats are few or missing, and single values can be far off.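 Imaging used 1,536-well plates; nuclei positive for cleaved PARP by antibody were divided by total DNA-stained nuclei to yield the apoptosis fraction. Doses for screening kept most cells viable, and cell lines differ markedly in resting and induced cleaved-PARP levels.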
Legend:
Assay in all cases: cleaved PARP positive nuclei fraction relative to DMSO control; melanoma cells; higher = more apoptosis
Settings in all cases: library dose: low library concentration; 72 h
[1] = tested on: WM115
[2] = tested on: WM1716
[3] = tested on: WM1745
[4] = tested on: WM3526
[5] = tested on: WM3619
[6] = tested on: WM451Lu

Compound	cleaved PARP positive nuclei fraction [1]	cleaved PARP positive nuclei fraction [2]	cleaved PARP positive nuclei fraction [3]	cleaved PARP positive nuclei fraction [4]	cleaved PARP positive nuclei fraction [5]	cleaved PARP positive nuclei fraction [6]
Cc1cc(Nc2cc(N3CCN(C)CC3)nc(Sc3ccc(NC(=O)C4CC4)cc3)n2)n[nH]1 [Tozasertib] + C/C(O)=C(\C#N)C(=O)Nc1cc(Br)ccc1Br [LFM-A13] (first compound 0.006 µM, partner dose 2 µM)	155%	111%	96.5%	175%	112%	197%
N.N.[Cl][Pt][Cl] [cisplatin] + Cn1cc(/C=C2\C(=O)Nc3cccnc32)c2ccccc21 [GW441756] (first compound 1.6 µM, partner dose 0.4 µM)	244%	123%	89.9%	183%	115%	133%
C[As](C)SC[C@H](NC(=O)CC[C@H](N)C(=O)O)C(=O)NCC(=O)O [Darinaparsin] + COc1ccc(COc2ccc(Cc3cnc(N)nc3N)cc2OC)cc1 [GW2580] (first compound 0.4 µM, partner dose 1 µM)	132%	67.5%	119%	186%	82.4%	56.6%
O=C(O)C(=O)Nc1sc2c(c1C(=O)O)CCNC2 + O=C(Oc1ccc([N+](=O)[O-])cc1)N1CCC(C(O)(c2ccc3c(c2)OCO3)c2ccc3c(c2)OCO3)CC1 [JZL184] (first compound 1.66667 µM, partner dose 1 µM)	51.4%	118%	133%	36.2%	74.4%	32.4%
N.N.[Cl][Pt][Cl] [cisplatin] + C/C(O)=C(\C#N)C(=O)Nc1cc(Br)ccc1Br [LFM-A13] (first compound 1.6 µM, partner dose 2 µM)	196%	109%	91.8%	89%	112%	208%
C[C@]12O[C@H](C[C@]1(O)CO)n1c3ccccc3c3c4c(c5c6ccccc6n2c5c31)CNC4=O [Lestaurtinib] + OCc1c[nH]c2ccccc12 [Indole-3-carbinol] (first compound 0.004 µM, partner dose 0.8 µM)	96.4%	475%	86%	154%	71.1%	96.6%
CC[C@]1(O)C[C@H]2CN(CCc3c([nH]c4ccccc34)[C@@](C(=O)OC)(c3cc4c(cc3OC)N(C=O)[C@H]3[C@@](O)(C(=O)OC)[C@H](OC(C)=O)[C@]5(CC)C=CCN6CC[C@]43[C@@H]65)C2)C1 [vincristine] + N.N.[Cl][Pt][Cl] [cisplatin] (first compound 0.0001 µM, partner dose 1.6 µM)	76.9%	139%	86.6%	56%	83.4%	182%
N.N.[Cl][Pt][Cl] [cisplatin] + C[C@]1(c2nc3c(C(N)=O)cccc3[nH]2)CCCN1 [Veliparib] (first compound 1.6 µM, partner dose 1.4 µM)	80%	108%	99.7%	47.6%	113%	38.8%
CO[C@H]1C[C@@H]2CC[C@@H](C)[C@@](O)(O2)C(=O)C(=O)N2CCCC[C@H]2C(=O)O[C@H]([C@H](C)C[C@@H]2CC[C@@H](OCCO)[C@H](OC)C2)CC(=O)[C@H](C)/C=C(\C)[C@@H](O)[C@@H](OC)C(=O)[C@H](C)C[C@H](C)/C=C/C=C/C=C/1C [everolimus] + O=C(Oc1ccc([N+](=O)[O-])cc1)N1CCC(C(O)(c2ccc3c(c2)OCO3)c2ccc3c(c2)OCO3)CC1 [JZL184] (first compound 0.02 µM, partner dose 1 µM)	192%	104%	106%	97.2%	151%	659%
C=CCn1c(=O)c2cnc(Nc3ccc(N4CCN(C)CC4)cc3)nc2n1-c1cccc(C(C)(C)O)n1 + C/C(O)=C(\C#N)C(=O)Nc1cc(Br)ccc1Br [LFM-A13] (first compound 0.02 µM, partner dose 2 µM)	82.5%	104%	124%	75.6%	127%	161%
Cn1cc(C2=C(c3cn(C4CCN(Cc5ccccn5)CC4)c4ccccc34)C(=O)NC2=O)c2ccccc21 [Enzastaurin] + CCCS(=O)(=O)Nc1ccc(F)c(C(=O)c2c[nH]c3ncc(Cl)cc23)c1F [PLX4720] (first compound 0.8 µM, partner dose 0.08 µM)	76.9%	219%	87.2%	143%	108%	26%
C[C@]1(O)C[C@@H](c2nc(-c3ccc4ccc(-c5ccccc5)nc4c3)c3c(N)nccn32)C1 + C[As](C)SC[C@H](NC(=O)CC[C@H](N)C(=O)O)C(=O)NCC(=O)O [Darinaparsin] (first compound 0.4 µM, partner dose 0.4 µM)	155%	66.2%	114%	28.3%	84.8%	141%
NC(=O)Nc1cc(-c2cccc(F)c2)sc1C(=O)N[C@H]1CCCNC1 + C/C(O)=C(\C#N)C(=O)Nc1cc(Br)ccc1Br [LFM-A13] (first compound 0.02 µM, partner dose 2 µM)	142%	120%	208%	90.6%	172%	127%
CO[C@@H]1[C@H](N(C)C(=O)c2ccccc2)C[C@H]2O[C@]1(C)n1c3ccccc3c3c4c(c5c6ccccc6n2c5c31)C(=O)NC4 [Midostaurin] + Cc1cc(SCc2sc(-c3ccc(C(F)(F)F)c(F)c3)nc2C)ccc1OCC(=O)O [GW0742] (first compound 0.08 µM, partner dose 2 µM)	83.2%	133%	116%	57.6%	88.5%	57.9%
COc1cc(Nc2ncc(F)c(Nc3ccc4c(n3)NC(=O)C(C)(C)O4)n2)cc(OC)c1OC [Tamatinib] + C/C(O)=C(\C#N)C(=O)Nc1cc(Br)ccc1Br [LFM-A13] (first compound 0.4 µM, partner dose 2 µM)	155%	103%	157%	252%	84.7%	136%
C[C@]12O[C@H](C[C@]1(O)CO)n1c3ccccc3c3c4c(c5c6ccccc6n2c5c31)CNC4=O [Lestaurtinib] + CNC(=O)c1cc(Oc2ccc(NC(=O)Nc3ccc(Cl)c(C(F)(F)F)c3)cc2)ccn1 [sorafenib] (first compound 0.004 µM, partner dose 0.4 µM)	169%	163%	108%	22.8%	101%	109%
O=C(Oc1ccc([N+](=O)[O-])cc1)N1CCC(C(O)(c2ccc3c(c2)OCO3)c2ccc3c(c2)OCO3)CC1 + O=c1cc(-c2cccc3c2Sc2ccccc2S3)oc(N2CCOCC2)c1 [KU55933] (first compound 1 µM, partner dose 1 µM)	58.1%	102%	94.5%	101%	93.7%	83.7%
N.N.[Cl][Pt][Cl] [cisplatin] + Cc1ccc(NC(=O)c2cccc(N(C)C)c2)cc1NC(=O)c1ccc(O)cc1 [ZM336372] (first compound 1.6 µM, partner dose 2 µM)	109%	102%	116%	57.9%	124%	57.3%
N.N.[Cl][Pt][Cl] [cisplatin] + Cc1cc(N2CCOCC2)cc2[nH]c(-c3c(NC[C@@H](O)c4cccc(Cl)c4)cc[nH]c3=O)nc12 [BMS536924] (first compound 1.6 µM, partner dose 0.2 µM)	110%	83.6%	146%	63.8%	120%	57.5%
C[As](C)SC[C@H](NC(=O)CC[C@H](N)C(=O)O)C(=O)NCC(=O)O [Darinaparsin] + O=C(Nc1ccccc1)c1cc([N+](=O)[O-])ccc1Cl [GW9662] (first compound 0.4 µM, partner dose 2 µM)	98.6%	70%	86.6%	27.8%	106%	60.8%
Cc1cc(SCc2sc(-c3ccc(C(F)(F)F)c(F)c3)nc2C)ccc1OCC(=O)O + O=C1NC(=O)/C(=C/c2ccc(-c3ccc(F)cc3O)o2)S1 [AS252424] (first compound 2 µM, partner dose 1 µM)	165%	55.1%	114%	49.3%	84.1%	53.7%
O=C(Nc1cc(C(F)(F)F)cc(C(F)(F)F)c1)c1cc(Cl)ccc1O + Cn1cc(C2=C(c3cn(C4CCN(Cc5ccccn5)CC4)c4ccccc34)C(=O)NC2=O)c2ccccc21 [Enzastaurin] (first compound 0.016 µM, partner dose 0.8 µM)	74.5%	75.7%	103%	62.7%	85.7%	48.1%

Just cleaved PARP positive nuclei fraction [1] (2 entries from above):
Compound,cleaved PARP positive nuclei fraction [1]
"N.N.[Cl][Pt][Cl] [cisplatin] + C/C(O)=C(\C#N)C(=O)Nc1cc(Br)ccc1Br [LFM-A13] (first compound 1.6 µM, partner dose 2 µM)",196%
"C[C@]12O[C@H](C[C@]1(O)CO)n1c3ccccc3c3c4c(c5c6ccccc6n2c5c31)CNC4=O [Lestaurtinib] + OCc1c[nH]c2ccccc12 [Indole-3-carbinol] (first compound 0.004 µM, partner dose 0.8 µM)",96.4%

From the supplement of paper PMC4604168 (melanoma cell lines)
